The assay has as its target T1, aIF2-γHis, His-tagged aIF2-γ expressed in Sulfolobus solfataricus (Sulfolobus solfataricus) (UniProt Q980A5).
T1 sequence: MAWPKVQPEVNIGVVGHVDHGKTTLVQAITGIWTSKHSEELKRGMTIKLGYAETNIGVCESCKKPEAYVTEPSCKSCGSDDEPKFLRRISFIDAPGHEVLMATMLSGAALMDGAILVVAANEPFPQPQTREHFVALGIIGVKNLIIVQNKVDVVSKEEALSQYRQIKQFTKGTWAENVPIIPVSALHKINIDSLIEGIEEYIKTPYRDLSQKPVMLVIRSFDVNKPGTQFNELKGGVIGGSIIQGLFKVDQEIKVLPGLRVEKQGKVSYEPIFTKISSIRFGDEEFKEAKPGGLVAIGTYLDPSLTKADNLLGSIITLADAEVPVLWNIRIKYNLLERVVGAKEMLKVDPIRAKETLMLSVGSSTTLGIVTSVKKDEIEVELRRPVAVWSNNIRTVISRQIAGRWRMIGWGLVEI
Kind of assay: affinity purification with mass spectrometry; aIF2-γHis captured by Ni-affinity chromatography from extracts of Sso PH1-16(pMJ05-γHis) after prolonged stationary phase and 3 h after outgrowth; buffer A (50 mM Tris-HCl pH 8.0, 300 mM NaCl, 15 mM imidazole, 10 mM β-mercaptoethanol), elution with 250 mM imidazole; Coomassie-stained gel, Sso2509 band identified by mass spectrometry; mock purification from PH1-16(pMJ05).

No constants are given. Whether binding was seen depends on the method and setting. In cells and extracts the contact can be indirect. A yes stands for co-enrichment or nearness to the bait. Other partners may have been found. Sequences can lack the tags named with a protein.

Regarding Sso protein 2509 (Trf), endogenous, the binding entry is listed as “binds”.
